# Measurements taken from publication PMC7956269.
# These are yes or no findings as the source states them, for the method shown. In cells and extracts the contact can be indirect. Here binding means that the protein was enriched with, or labelled near, the bait; the list need not be complete.
# Biological target: Biotin-FOXC1 (mouse) (UniProt Q61572)
# Assay: affinity purification with mass spectrometry; streptavidin-agarose precipitation of biotinylated FOXC1 from nuclear extract of stable HEK293T cells (293T-Biotin-FOXC1); IP350 buffer (350 mM NaCl, 20 mM Tris-HCl pH 7.5, 0.5% NP40, 1 mM EDTA, 10% glycerin); SDS-PAGE, LC-ESI-MS/MS; proteins of the 293T-Biotin control deducted
row,Binder,binding
1,"Agk (protein, UniProt Q53H12 1-422) MTVFFKTLRNHWKKTTAGLCLLTWGGHWLYGKHCDNLLRRAACQEAQVFGNQLIPPNAQVKKATVFLNPAACKGKARTLFEKNAAPILHLSGMDVTIVKTDYEGQAKKLLELMENTDVIIVAGGDGTLQEVVTGVLRRTDEATFSKIPIGFIPLGETSSLSHTLFAESGNKVQHITDATLAIVKGETVPLDVLQIKGEKEQPVFAMTGLRWGSFRDAGVKVSKYWYLGPLKIKAAHFFSTLKEWPQTHQASISYTGPTERPPNEPEETPVQRPSLYRRILRRLASYWAQPQDALSQEVSPEVWKDVQLSTIELSITTRNNQLDPTSKEDFLNICIEPDTISKGDFITIGSRKVRNPKLHVEGTECLQASQCTLLIPEGAGGSFSIDSEEYEAMPVEVKLLPRKLQFFCDPRKREQMLTSPTQ",binds
2,"Asns (protein, UniProt P08243 1-561) MCGIWALFGSDDCLSVQCLSAMKIAHRGPDAFRFENVNGYTNCCFGFHRLAVVDPLFGMQPIRVKKYPYLWLCYNGEIYNHKKMQQHFEFEYQTKVDGEIILHLYDKGGIEQTICMLDGVFAFVLLDTANKKVFLGRDTYGVRPLFKAMTEDGFLAVCSEAKGLVTLKHSATPFLKVEPFLPGHYEVLDLKPNGKVASVEMVKYHHCRDVPLHALYDNVEKLFPGFEIETVKNNLRILFNNAVKKRLMTDRRIGCLLSGGLDSSLVAATLLKQLKEAQVQYPLQTFAIGMEDSPDLLAARKVADHIGSEHYEVLFNSEEGIQALDEVIFSLETYDITTVRASVGMYLISKYIRKNTDSVVIFSGEGSDELTQGYIYFHKAPSPEKAEEESERLLRELYLFDVLRADRTTAAHGLELRVPFLDHRFSSYYLSLPPEMRIPKNGIEKHLLRETFEDSNLIPKEILWRPKEAFSDGITSVKNSWFKILQEYVEHQVDDAMMANAAQKFPFNTPKTKEGYYYRQVFERHYPGRADWLSHYWMPKWINATDPSARTLTHYKSAVKA",binds
3,"Brap (protein, UniProt Q7Z569 1-592) MSVSLVVIRLELAEHSPVPAGFGFSAAAGEMSDEEIKKTTLASAVACLEGKSPGEKVAIIHQHLGRREMTDVIIETMKSNPDELKTTVEERKSSEASPTAQRSKDHSKECINAAPDSPSKQLPDQISFFSGNPSVEIVHGIMHLYKTNKMTSLKEDVRRSAMLCILTVPAAMTSHDLMKFVAPFNEVIEQMKIIRDSTPNQYMVLIKFRAQADADSFYMTCNGRQFNSIEDDVCQLVYVERAEVLKSEDGASLPVMDLTELPKCTVCLERMDESVNGILTTLCNHSFHSQCLQRWDDTTCPVCRYCQTPEPVEENKCFECGVQENLWICLICGHIGCGRYVSRHAYKHFEETQHTYAMQLTNHRVWDYAGDNYVHRLVASKTDGKIVQYECEGDTCQEEKIDALQLEYSYLLTSQLESQRIYWENKIVRIEKDTAEEINNMKTKFKETIEKCDNLEHKLNDLLKEKQSVERKCTQLNTKVAKLTNELKEEQEMNKCLRANQVLLQNKLKEEERVLKETCDQKDLQITEIQEQLRDVMFYLETQQKINHLPAETRQEIQEGQINIAMASASSPASSGGSGKLPSRKGRSKRGK",binds
4,"Cct2 (protein, UniProt P78371 1-535) MASLSLAPVNIFKAGADEERAETARLTSFIGAIAIGDLVKSTLGPKGMDKILLSSGRDASLMVTNDGATILKNIGVDNPAAKVLVDMSRVQDDEVGDGTTSVTVLAAELLREAESLIAKKIHPQTIIAGWREATKAAREALLSSAVDHGSDEVKFRQDLMNIAGTTLSSKLLTHHKDHFTKLAVEAVLRLKGSGNLEAIHIIKKLGGSLADSYLDEGFLLDKKIGVNQPKRIENAKILIANTGMDTDKIKIFGSRVRVDSTAKVAEIEHAEKEKMKEKVERILKHGINCFINRQLIYNYPEQLFGAAGVMAIEHADFAGVERLALVTGGEIASTFDHPELVKLGSCKLIEEVMIGEDKLIHFSGVALGEACTIVLRGATQQILDEAERSLHDALCVLAQTVKDSRTVYGGGCSEMLMAHAVTQLANRTPGKEAVAMESYAKALRMLPTIIADNAGYDSADLVAQLRAAHSEGNTTAGLDMREGTIGDMAILGITESFQVKRQVLLSAAEAAEVILRVDNIIKAAPRKRVPDHHPC",binds
5,"Arcn1 (protein, UniProt P48444 1-511) MVLLAAAVCTKAGKAIVSRQFVEMTRTRIEGLLAAFPKLMNTGKQHTFVETESVRYVYQPMEKLYMVLITTKNSNILEDLETLRLFSRVIPEYCRALEENEISEHCFDLIFAFDEIVALGYRENVNLAQIRTFTEMDSHEEKVFRAVRETQEREAKAEMRRKAKELQQARRDAERQGKKAPGFGGFGSSAVSGGSTAAMITETIIETDKPKVAPAPARPSGPSKALKLGAKGKEVDNFVDKLKSEGETIMSSSMGKRTSEATKMHAPPINMESVHMKIEEKITLTCGRDGGLQNMELHGMIMLRISDDKYGRIRLHVENEDKKGVQLQTHPNVDKKLFTAESLIGLKNPEKSFPVNSDVGVLKWRLQTTEESFIPLTINCWPSESGNGCDVNIEYELQEDNLELNDVVITIPLPSGVGAPVIGEIDGEYRHDSRRNTLEWCLPVIDAKNKSGSLEFSIAGQPNDFFPVQVSFVSKKNYCNIQVTKVTQVDGNSPVRFSTETTFLVDKYEIL",binds

# Results, then the binder that gave them:
row,binding,Binder
1,binds,"Imp3 (protein, UniProt Q9NV31 1-184) MVRKLKFHEQKLLKQVDFLNWEVTDHNLHELRVLRRYRLQRREDYTRYNQLSRAVRELARRLRDLPERDQFRVRASAALLDKLYALGLVPTRGSLELCDFVTASSFCRRRLPTVLLKLRMAQHLQAAVAFVEQGHVRVGPDVVTDPAFLVTRSMEDFVTWVDSSKIKRHVLEYNEERDDFDLEA"
2,binds,"Jup (protein, UniProt P14923 1-745) MEVMNLMEQPIKVTEWQQTYTYDSGIHSGANTCVPSVSSKGIMEEDEACGRQYTLKKTTTYTQGVPPSQGDLEYQMSTTARAKRVREAMCPGVSGEDSSLLLATQVEGQATNLQRLAEPSQLLKSAIVHLINYQDDAELATRALPELTKLLNDEDPVVVTKAAMIVNQLSKKEASRRALMGSPQLVAAVVRTMQNTSDLDTARCTTSILHNLSHHREGLLAIFKSGGIPALVRMLSSPVESVLFYAITTLHNLLLYQEGAKMAVRLADGLQKMVPLLNKNNPKFLAITTDCLQLLAYGNQESKLIILANGGPQALVQIMRNYSYEKLLWTTSRVLKVLSVCPSNKPAIVEAGGMQALGKHLTSNSPRLVQNCLWTLRNLSDVATKQEGLESVLKILVNQLSVDDVNVLTCATGTLSNLTCNNSKNKTLVTQNSGVEALIHAILRAGDKDDITEPAVCALRHLTSRHPEAEMAQNSVRLNYGIPAIVKLLNQPNQWPLVKATIGLIRNLALCPANHAPLQEAAVIPRLVQLLVKAHQDAQRHVAAGTQQPYTDGVRMEEIVEGCTGALHILARDPMNRMEIFRLNTIPLFVQLLYSSVENIQRVAAGVLCELAQDKEAADAIDAEGASAPLMELLHSRNEGTATYAAAVLFRISEDKNPDYRKRVSVELTNSLFKHDPAAWEAAQSMIPINEPYGDDMDATYRPMYSSDVPLDPLEMHMDMDGDYPIDTYSDGLRPPYPTADHMLA"
3,binds,"Paics (protein, UniProt P22234 1-425) MATAEVLNIGKKLYEGKTKEVYELLDSPGKVLLQSKDQITAGNAARKNHLEGKAAISNKITSCIFQLLQEAGIKTAFTRKCGETAFIAPQCEMIPIEWVCRRIATGSFLKRNPGVKEGYKFYPPKVELFFKDDANNDPQWSEEQLIAAKFCFAGLLIGQTEVDIMSHATQAIFEILEKSWLPQNCTLVDMKIEFGVDVTTKEIVLADVIDNDSWRLWPSGDRSQQKDKQSYRDLKEVTPEGLQMVKKNFEWVAERVELLLKSESQCRVVVLMGSTSDLGHCEKIKKACGNFGIPCELRVTSAHKGPDETLRIKAEYEGDGIPTVFVAVAGRSNGLGPVMSGNTAYPVISCPPLTPDWGVQDVWSSLRLPSGLGCSTVLSPEGSAQFAAQIFGLSNHLVWSKLRASILNTWISLKQADKKIRECNL"
4,binds,"Rfc1 (protein, UniProt P35251 1-1148) MDIRKFFGVIPSGKKLVSETVKKNEKTKSDEETLKAKKGIKEIKVNSSRKEDDFKQKQPSKKKRIIYDSDSESEETLQVKNAKKPPEKLPVSSKPGKISRQDPVTYISETDEEDDFMCKKAASKSKENGRSTNSHLGTSNMKKNEENTKTKNKPLSPIKLTPTSVLDYFGTGSVQRSNKKMVASKRKELSQNTDESGLNDEAIAKQLQLDEDAELERQLHEDEEFARTLAMLDEEPKTKKARKDTEAGETFSSVQANLSKAEKHKYPHKVKTAQVSDERKSYSPRKQSKYESSKESQQHSKSSADKIGEVSSPKASSKLAIMKRKEESSYKEIEPVASKRKENAIKLKGETKTPKKTKSSPAKKESVSPEDSEKKRTNYQAYRSYLNREGPKALGSKEIPKGAENCLEGLIFVITGVLESIERDEAKSLIERYGGKVTGNVSKKTNYLVMGRDSGQSKSDKAAALGTKIIDEDGLLNLIRTMPGKKSKYEIAVETEMKKESKLERTPQKNVQGKRKISPSKKESESKKSRPTSKRDSLAKTIKKETDVFWKSLDFKEQVAEETSGDSKARNLADDSSENKVENLLWVDKYKPTSLKTIIGQQGDQSCANKLLRWLRNWQKSSSEDKKHAAKFGKFSGKDDGSSFKAALLSGPPGVGKTTTASLVCQELGYSYVELNASDTRSKSSLKAIVAESLNNTSIKGFYSNGAASSVSTKHALIMDEVDGMAGNEDRGGIQELIGLIKHTKIPIICMCNDRNHPKIRSLVHYCFDLRFQRPRVEQIKGAMMSIAFKEGLKIPPPAMNEIILGANQDIRQVLHNLSMWCARSKALTYDQAKADSHRAKKDIKMGPFDVARKVFAAGEETAHMSLVDKSDLFFHDYSIAPLFVQENYIHVKPVAAGGDMKKHLMLLSRAADSICDGDLVDSQIRSKQNWSLLPAQAIYASVLPGELMRGYMTQFPTFPSWLGKHSSTGKHDRIVQDLALHMSLRTYSSKRTVNMDYLSLLRDALVQPLTSQGVDGVQDVVALMDTYYLMKEDFENIMEISSWGGKPSPFSKLDPKVKAAFTRAYNKEAHLTPYSLQAIKASRHSTSPSLDSEYNEELNEDDSQSDEKDQDAIETDAMIKKKTKSSKPSKPEKDKEPRKGKGKSSKK"
5,binds,"Hsd17b11 (protein, UniProt Q8NBQ5 20-300) ESFVKLFIPKRRKSVTGEIVLITGAGHGIGRLTAYEFAKLKSKLVLWDINKHGLEETAAKCKGLGAKVHTFVVDCSNREDIYSSAKKVKAEIGDVSILVNNAGVVYTSDLFATQDPQIEKTFEVNVLAHFWTTKAFLPAMTKNNHGHIVTVASAAGHVSVPFLLAYCSSKFAAVGFHKTLTDELAALQITGVKTTCLCPNFVNTGFIKNPSTSLGPTLEPEEVVNRLMHGILTEQKMIFIPSSIAFLTTLERILPERFLAVLKRKISVKFDAVIGYKMKAQ"
